According to article PMC7949163:
Substitutions are numbered along the chain they refer to. Results are given in words; binding and its absence hold for the method and conditions named. Binding calls can cover weak binding; strength is not graded here.

What was measured:
[1] = target: T1, MglB^S54A,S57A (Myxococcus xanthus) (UniProt Q1DB03); assay: SEC; analytical SEC, Superdex 200 Increase 10/300, 0.5 ml/min, A280; proteins alone or MglB:MglC mixed 1:1, 2:1 and 1:2; MglB mutants mixed with MglC 2:1; both purified
T1 sequence: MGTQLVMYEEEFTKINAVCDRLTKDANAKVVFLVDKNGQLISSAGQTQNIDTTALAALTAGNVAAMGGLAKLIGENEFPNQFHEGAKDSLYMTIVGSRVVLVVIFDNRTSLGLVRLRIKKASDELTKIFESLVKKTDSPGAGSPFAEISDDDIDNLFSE

[2] = target: T2, MglB^ΔCT (Myxococcus xanthus) (UniProt Q1DB03); assay: as above
T2 sequence: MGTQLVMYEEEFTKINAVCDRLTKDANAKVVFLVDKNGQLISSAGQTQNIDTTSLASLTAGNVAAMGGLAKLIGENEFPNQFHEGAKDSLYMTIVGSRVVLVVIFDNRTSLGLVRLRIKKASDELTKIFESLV

[3] = target: T3, MglB^E84A,R115A (Myxococcus xanthus) (UniProt Q1DB03); assay: as above
T3 sequence: T1 sequence with A54S, A57S, E84A, R115A

[4] = target: T2, MglB^ΔCT (Myxococcus xanthus); assay: SAXS; SAXSpace line collimation, 20 °C; MglB 25, 15, 10 mg/ml; MglC 35, 15, 20 mg/ml; MglBC and MglB^ΔCTC complexes freshly eluted from SEC; both purified

binding [1]: binds
binding [2]: binds
binding [3]: binds
binding [4]: binds
Substance: Mutual gliding motility protein C (MglC) (Myxococcus xanthus)
